Test results as given in PubChem BioAssay AID504834 (National Center for Advancing Translational Sciences (NCATS), 2011).
Among all 320,000 compounds or so, about 22,000 (6.9%) were called active. The inconclusive results got no clear call from the source; some entries with a clear call stand among them for comparison. The call rests on the fitted dose curve; in most records, active means well fitted inhibition curve with a large enough effect; inconclusive means small, poorly fitted or top-dose-only effect, or another doubt; inactive means no such curve, though single readings can be large or run the other way. A potency beside an inconclusive call is a rough fit, not a confirmed value.

Assay: Primary qHTS for delayed death inhibitors of the malarial parasite plastid, 96 hour incubation
Settings: P. falciparum luciferase reporter growth; series mostly up to 28.7 µM
Summary of the method: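 Readout is luminescence from an integrated firefly luciferase in P. falciparum. Red cells, 2% hematocrit and 0.05% parasitemia final, were cultured with compound through two parasite generations (96 hours) at 37 C, 5% CO2.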
Potency means the concentration at half of the fitted maximal effect.

Row | SMILES | Potency
1 | CCc1ccc2c(c1)cc(CN(C(=S)Nc1cccc(C)c1)C1CC1)c1nnnn12 | active: 2.33 µM
2 | COc1ccc(NC(=S)NC(NC(=O)c2cccc(C)c2)C(Cl)(Cl)Cl)c([N+](=O)[O-])c1 (configuration not stated) | inactive
3 | Cc1ccccc1Nc1ncc(C#N)c(N)n1 | inconclusive: 16.5 µM [inhibitor, single point]
4 | CSCCC(NS(=O)(=O)c1ccc(Br)cc1)C(=O)OCC(=O)NC1CC1 (configuration not stated) | inconclusive: 0.0738 µM [inhibitor, full curve, poor fit]
5 | CC(C)(C)NC(=O)COC(=O)c1cc(S(=O)(=O)N2CCCCC2)ccc1N1CCOCC1 | inconclusive: 18.5 µM [inhibitor, single point]
6 | CC(C)Cc1ccc(C(C)C(=N)N)cc1 (configuration not stated) | inconclusive: 11.7 µM [inhibitor, single point]
7 | CCOc1ccc(C(=O)CCC(=O)N2CCN(c3ncccn3)CC2)cc1 | inconclusive: 11.7 µM [inhibitor, single point]
8 | COc1cccc(N2CCN(CC(=O)Nc3ccccc3C(=O)NCc3ccccc3)CC2)c1 | inconclusive: 13.1 µM [inhibitor, single point]
9 | O=C1NC(=O)N(Cc2ccccc2Cl)C(=O)/C1=C/c1cccs1 | inconclusive: 0.415 µM [inhibitor, full curve, poor fit]
10 | CCCNC(=O)c1ccccc1NC(=O)C1=CSCCO1 | active: 14.7 µM
11 | CC(C)Oc1ncnc2c1[nH]c1ccccc12 | inconclusive: 2.62 µM [inhibitor, partial curve, poor fit]
12 | Cc1ccc(NC(=O)C(C)SCc2ccccc2)cc1 (configuration not stated) | inconclusive: 11.7 µM [inhibitor, single point]
13 | COCCNC(=O)C(C)OC(=O)C1=Cc2ccccc2OC1 (configuration not stated) | inconclusive: 13.1 µM [inhibitor, single point]
14 | O=C(NNc1cccc(Cl)n1)C(F)(F)F | active: 2.33 µM
15 | O=C(CSc1nc2[nH]ncc2c(=O)n1-c1ccccc1)NCc1cccs1 | inconclusive: 18.5 µM [inhibitor, single point]
16 | COc1ccc(OCC2NCCc3cc(OC)c(OC)cc32)cc1 (configuration not stated) | inactive
17 | CCOC(=O)c1cnc(SCC(=O)c2ccc(C)cc2)nc1N | inconclusive: 13.1 µM [inhibitor, single point]
18 | COc1ccc(C)cc1N(CC(=O)N1CCCCCC1)S(=O)(=O)c1ccc(C)cc1 | inconclusive: 5.86 µM [inhibitor, partial curve]
19 | CCC(C)N1CC(C(=O)NC2CCCCC2)CC1=O (configuration not stated) | inconclusive: 11.7 µM [inhibitor, partial curve, poor fit]
20 | CCCCCC1CCC(c2nnc(SCC(C)=O)o2)CC1 (configuration not stated) | inconclusive: 2.94 µM [inhibitor, full curve, poor fit]
21 | Cc1cc(NC(=O)CSc2cn(CCNC(=O)c3ccccc3)c3ccccc23)no1 | inconclusive: 18.5 µM [inhibitor, single point]
22 | Cc1cc(/C=c2/sc3nc4ccccc4n3c2=O)c(C)n1-c1ccccn1 | inactive
23 | CSc1ccccc1NC(=O)c1cnc2scc(C)n2c1=O | inactive

Row | SMILES | Potency
24 | Cc1nnc(NC(=O)CSc2ncnc3scc(-c4ccccc4)c23)s1 | inconclusive: 1.31 µM [inhibitor, partial curve, poor fit]
25 | CCOc1ccc(CCNC(=O)COC(=O)c2nc(Cl)ccc2Cl)cc1OCC | inconclusive: 10.4 µM [inhibitor, single point]
26 | CCc1cccc2c(C(=O)Cn3nnc(-c4ccc(OC)c(OC)c4)n3)c[nH]c12 | inconclusive: 18.5 µM [inhibitor, single point]
27 | CCOc1ccccc1Nc1nnc(SCc2ccc(C(=O)OC)o2)s1 | inconclusive: 9.28 µM [inhibitor, partial curve, poor fit]
28 | O=C(CSc1nc2[nH]ncc2c(=O)[nH]1)Nc1ccccc1F | inactive
29 | CCN(CC)CCNC(=O)c1cc(-c2ccco2)nc2ccccc12 | inconclusive: 10.4 µM [inhibitor, single point]
30 | COC(=O)/C(C#N)=C1/C=Cc2ccccc2N1C | inactive
31 | CC1(OC(=O)C2CCCC2)C(=O)C=C2C=C3CCCCN3C=C2C1=O (configuration not stated) | inconclusive: 9.28 µM [inhibitor, single point]
32 | O=C(CCn1nc(-c2ccc(Cl)cc2)ccc1=O)N1CCC2(CC1)OCCO2 | inactive
33 | O=C(N/C(=C/c1cccs1)c1nc2ccccc2[nH]1)c1ccccc1 | inconclusive: 10.4 µM [inhibitor, partial curve]
34 | CC12CCC(C(=O)Nc3cccc4ccccc34)(C1Br)C2(C)C (configuration not stated) | inconclusive: 9.28 µM [inhibitor, partial curve]
35 | O=C(O)CN1C(=O)/C(=C/c2ccccc2Br)Oc2ccccc21 | inactive
36 | C=C1c2cccc(O)c2C(O)=C2C(=O)[C@@]3(O)C(O)=C(C(N)=O)C(=O)[C@@H](N(C)C)[C@@H]3[C@@H](O)[C@H]12 | active: 1.28 µM
37 | CCc1ccccc1NC(=O)c1cc([N+](=O)[O-])ccc1N1CCOCC1 | inactive
38 | c1ccc(Cn2nnc3c(NCC4CCCO4)ncnc32)cc1 (configuration not stated) | active: 11.7 µM
39 | O=c1c2c3c(sc2nc2sc(C4CC4)nn12)CCCC3 | inactive
40 | O=C(c1ccc(F)cc1)N1CCCC(N2CCN(Cc3ccc4c(c3)OCO4)CC2)C1 (configuration not stated) | inconclusive: 10.4 µM [inhibitor, single point]
41 | Cc1ccc(C(=O)O)cc1N=Cc1cc(Br)cc(Br)c1O | inconclusive: 3.7 µM [inhibitor, single point]
42 | Cn1ncc(N=Cc2ccccc2O)c1C(=O)Nc1ccccc1 | inconclusive: 14.7 µM [inhibitor, single point]
43 | CCOc1ccc(C(=O)N2CCN(Cc3ccccc3)CC2)cc1 | inconclusive: 9.28 µM [inhibitor, single point]
44 | COc1cc(CNCCCN2CCOCC2)c(Br)cc1OCC(=O)Nc1ccccc1C | inconclusive: 18.5 µM [inhibitor, single point]
45 | CC(=O)c1ccc(N2CCN(c3ccnc4cc(Cl)ccc34)CC2)cc1 | active: 6.57 µM
46 | Fc1ccccc1COc1ccc(Br)cc1CNCc1cccnc1 | inconclusive: 11.7 µM [inhibitor, partial curve, poor fit]

Three entries picked at random from those above, as already listed:
Row | SMILES | Potency
42 | Cn1ncc(N=Cc2ccccc2O)c1C(=O)Nc1ccccc1 | inconclusive: 14.7 µM [inhibitor, single point]
29 | CCN(CC)CCNC(=O)c1cc(-c2ccco2)nc2ccccc12 | inconclusive: 10.4 µM [inhibitor, single point]
44 | COc1cc(CNCCCN2CCOCC2)c(Br)cc1OCC(=O)Nc1ccccc1C | inconclusive: 18.5 µM [inhibitor, single point]

(further entries)

Row | SMILES | Potency
47 | CCOC(=O)N1CCN(C(=O)c2ccc(CSc3ccc(Cl)cc3)cc2)CC1 | inconclusive: 18.5 µM [inhibitor, single point]
48 | O=C(COc1cccc(C(F)(F)F)c1)NCC(c1ccco1)N1CCCCC1 (configuration not stated) | inconclusive: 13.1 µM [inhibitor, partial curve]
49 | O=C(NNc1ncnc2c1cnn2-c1ccc(F)cc1)c1ccco1 | inconclusive: 1.47 µM [inhibitor, full curve]
50 | CCn1cc(C(=O)N2CCCC2)c(=O)c2cc(S(=O)(=O)N3CCC(C)CC3)ccc21 | inconclusive: 13.1 µM [inhibitor, single point]
51 | O=C(COC(=O)Cc1ccccc1[N+](=O)[O-])NNC(=O)c1ccc([N+](=O)[O-])cc1 | inactive
52 | Cc1ccc(-n2c(Cc3cccn3C)nnc2SCC(=O)Nc2ccc3c(c2)OCO3)cc1 | inconclusive: 10.4 µM [inhibitor, single point]
53 | CCCCC1S/C(=N/N=C/c2ccc(OC)cc2)N(Cc2ccc(OC)cc2)C1=O (configuration not stated) | inconclusive: 0.928 µM [inhibitor, full curve, poor fit]
54 | CC(=O)Nc1ccc(S(=O)(=O)NC2CC(=O)N(c3ccc(C)c(C)c3)C2)cc1 (configuration not stated) | inconclusive: 2.62 µM [inhibitor, partial curve, poor fit]
55 | CC(C)c1ccc2oc(-c3ccc(NC(=O)c4ncn[nH]4)cc3)nc2c1 | active: 1.65 µM
56 | Cc1ccc(/C=c2\sc3n(c2=O)CN(c2cccc(Br)c2)CN=3)o1 | inconclusive: 18.5 µM [inhibitor, single point]
57 | COC(=O)c1c(N)n(CCCN2CCOCC2)c2nc3ccccc3nc12 | active: 9.28 µM
58 | C=CCn1c(SCCN2CCCCC2)nc2c1c(=O)[nH]c(=O)n2C | inconclusive: 9.28 µM [inhibitor, partial curve, poor fit]
59 | CCn1cc(C(=O)N2CCCC(C(=O)c3ccc4ccccc4c3)C2)cn1 (configuration not stated) | inactive
60 | Cc1ccc(CS(=O)(=O)Cc2ccc(C(=O)NCC3CCCO3)o2)cc1 (configuration not stated) | inconclusive: 4.65 µM [inhibitor, partial curve, poor fit]
61 | CCCCNC(=O)C(Cc1ccccc1)NS(=O)(=O)c1ccc2c(c1)c(=O)n(C)c(=O)n2C (configuration not stated) | inconclusive: 10.4 µM [inhibitor, partial curve, poor fit]
62 | CCCNS(=O)(=O)c1ccc(-n2cnnn2)c(OC)c1 | inconclusive: 0.233 µM [inhibitor, full curve, poor fit]
63 | Cc1ccccc1-c1noc(-c2ccc(Cl)cc2)n1 | inconclusive: 3.7 µM [inhibitor, single point]
64 | CCc1ccc(/C=N/NC(=O)c2cc(-c3cccc([N+](=O)[O-])c3)n[nH]2)cc1 | inconclusive: 0.0041 µM [inhibitor, full curve, poor fit]
65 | COc1ccccc1/C=C1/SC(=S)N(C(C)C(=O)NC2C=CS(=O)(=O)C2)C1=O (configuration not stated) | inconclusive: 11.7 µM [inhibitor, single point]
66 | COc1ccccc1NS(=O)(=O)c1cc(C(=O)NCC(c2cccs2)N2CCOCC2)ccc1C (configuration not stated) | inconclusive: 16.5 µM [inhibitor, partial curve, poor fit]
67 | OCCNc1nc(NCc2ccccc2)c2ccccc2n1 | active: 11.7 µM
